This passage reports A171T/WT results from patent US20170107579A1, “E1 ENZYME MUTANTS AND USES THEREOF” (Millennium Pharmaceuticals, Inc., priority 2011, published 2017).

The chains behind the UniProt entries cited, without tags or fusion partners. Residues count along the entry.
UniProt Q8TBC4, whole entry A171T: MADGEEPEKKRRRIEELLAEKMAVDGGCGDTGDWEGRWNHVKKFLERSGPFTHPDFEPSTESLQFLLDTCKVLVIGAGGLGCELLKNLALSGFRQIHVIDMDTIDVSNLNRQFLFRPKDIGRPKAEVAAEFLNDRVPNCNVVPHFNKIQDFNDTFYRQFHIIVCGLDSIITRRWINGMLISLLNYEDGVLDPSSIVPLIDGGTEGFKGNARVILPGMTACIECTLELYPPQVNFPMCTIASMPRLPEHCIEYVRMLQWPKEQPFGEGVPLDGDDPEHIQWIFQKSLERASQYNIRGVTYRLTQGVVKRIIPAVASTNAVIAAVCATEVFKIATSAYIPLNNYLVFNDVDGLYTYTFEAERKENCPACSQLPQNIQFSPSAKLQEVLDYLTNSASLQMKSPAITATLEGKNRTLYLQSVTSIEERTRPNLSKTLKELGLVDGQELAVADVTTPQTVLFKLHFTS
UniProt Q13564, whole entry partner: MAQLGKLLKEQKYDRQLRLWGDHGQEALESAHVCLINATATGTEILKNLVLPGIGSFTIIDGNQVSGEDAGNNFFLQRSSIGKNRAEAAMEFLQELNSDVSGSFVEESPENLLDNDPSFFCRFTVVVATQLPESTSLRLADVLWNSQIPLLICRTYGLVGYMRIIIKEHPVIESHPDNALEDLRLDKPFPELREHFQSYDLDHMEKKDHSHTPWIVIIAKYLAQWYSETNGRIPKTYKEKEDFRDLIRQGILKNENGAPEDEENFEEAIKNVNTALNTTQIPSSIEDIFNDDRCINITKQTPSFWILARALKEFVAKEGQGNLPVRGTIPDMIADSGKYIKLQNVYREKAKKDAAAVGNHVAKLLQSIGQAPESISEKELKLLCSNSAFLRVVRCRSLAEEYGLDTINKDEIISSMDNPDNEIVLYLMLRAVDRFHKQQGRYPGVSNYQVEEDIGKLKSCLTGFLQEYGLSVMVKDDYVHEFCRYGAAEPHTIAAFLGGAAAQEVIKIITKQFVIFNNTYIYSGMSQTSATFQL
UniProt Q15843, 1-76 partner limits assumed: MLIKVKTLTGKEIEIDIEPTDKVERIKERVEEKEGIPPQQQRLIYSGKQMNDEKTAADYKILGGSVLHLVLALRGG

The assay has as its target UBA3 variant with A171T mutation (NAE) (Homo sapiens, UniProt Q8TBC4, A171T). In words: NAE HTRF assay, IC50 at KM for ATP (120 μM). The conditions noted are these: ratio of IC50 A171T mutant to IC50 wild type. (In general: Time-resolved FRET reads energy transfer from a long-lived donor to a nearby acceptor.)

Structures were worked out from names or drawings and are uncertain.

On to `NS(=O)(=O)OC[C@H]1O[C@@H](n2cnc3c(N[C@@H]4c5ccccc5C[C@@H]4O)ncnc32)[C@H](O)[C@@H]1O`, for which the A171T/WT was 3.
